In paper PMC6611741:
Results are given in words; binding and its absence hold for the method and conditions named.

Chains of the proteins cited; added tags and fusions are not shown. Residues count along the entry.
UniProt P02769, residues 25-607: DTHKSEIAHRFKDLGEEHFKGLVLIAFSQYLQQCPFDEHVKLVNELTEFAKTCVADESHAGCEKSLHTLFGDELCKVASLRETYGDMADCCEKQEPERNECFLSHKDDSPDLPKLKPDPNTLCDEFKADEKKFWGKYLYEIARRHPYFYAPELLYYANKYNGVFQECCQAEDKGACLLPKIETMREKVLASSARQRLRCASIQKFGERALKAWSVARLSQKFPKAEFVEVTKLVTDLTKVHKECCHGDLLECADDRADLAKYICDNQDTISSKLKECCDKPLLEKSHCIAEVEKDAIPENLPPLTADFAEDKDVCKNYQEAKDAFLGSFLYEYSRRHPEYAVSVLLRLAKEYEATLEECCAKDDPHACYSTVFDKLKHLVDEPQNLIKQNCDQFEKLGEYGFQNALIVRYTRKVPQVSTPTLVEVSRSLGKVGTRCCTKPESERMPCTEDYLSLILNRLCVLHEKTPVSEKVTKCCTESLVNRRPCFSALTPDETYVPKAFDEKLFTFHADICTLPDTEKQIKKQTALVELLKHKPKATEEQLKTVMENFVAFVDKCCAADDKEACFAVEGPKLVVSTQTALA

Key:
[1] = molecular target: Bovine serum albumin (bovine) (UniProt P02769); test: electrolyte-gated organic thin-film transistor (SiMoT) response; BSA-functionalized gold gate incubated 10 min in human saliva progressively diluted in PBS (up to 1:10^15), from the more diluted to the more concentrated; endogenous CRP; only the target purified
[2] = molecular target: Bovine serum albumin (bovine) (UniProt P02769); test: electrolyte-gated organic thin-film transistor (SiMoT) response; BSA-functionalized gold gate incubated 10 min in 100 μl of PBS standard solutions of CRP, nominal 6 zM to 6 10^14 zM; PBS pH 7.4, ionic strength 162 mM; RT 20–22 °C; washed, then transfer curves measured; three gates; both purified

binding [1]: no binding | binding [2]: no binding (tested: 6 10^14 zM (600 pM))
B1: Human C-reactive protein (protein, UniProt P02741 19-224)
chain: QTDMSRKAFVFPKESDTSYVSLKAPLTKPLKAFTVCLHFYTELSSTRGYSIFSYATKRQDNEILIFWSKDIGYSFTVGGSEILFEVPEVTVAPVHICTSWESASGIVEFWVDGKPRVRKSLKKGYTVGAEASIILGQEQDSFGGNFEGSQSLVGDIGNVNMWDFVLSPDEINTIYLGGPFSPNVLNWRALKYEVQGEVFTKPQLWP
